From PubChem BioAssay AID504408 (Broad Institute, 2011)
In all, about 300,000 compounds went through this assay and about 5,200 (1.7%) were called active. Inconclusive results, whose numbers are uncertain, are shown with a selection of clear calls.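 Rule for the calls: active = mean replicate activation of at least 50% with a set share of replicates each reaching 50%; inconclusive = only one of those two conditions met; inactive = mean below 50% and too few replicates reaching it.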

test: HSF-1 activators, primary screen, NIH3T3-HGL cells, MG132 stress, luminescence, single point (AID 504408); conditions: NIH3T3-HGL HSF-1 luciferase reporter, MG132, 8 h; at 9 µM; stronger effect = higher value; 100% = twice DMSO control signal;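 note: 0% = median of the neutral control wells and 100% = twice that signal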

Structure (SMILES) | activation
COc1ccc(C2(C)NC(=O)N(CC3CCCCC3)C2=O)cc1 (stereo unspecified) | inconclusive: 50.8%
Nn1cnnc1N/N=C/c1cccc(Cl)c1Cl | inconclusive: 50.7%
c1ccc2[nH]c(SCc3ccc(-c4nnco4)cc3)nc2c1 | inconclusive: 51.1%
N#C/C(C(=O)NCc1ccccc1)=C1/N=C(NC(=O)c2ccco2)c2ccccc21 | inconclusive: 50.3%
Cc1cccc(C=Nc2ccc3c4c(cccc24)CC3)c1O | inactive: 34.1%
Cc1cc(C)c(S(=O)(=O)Nc2cccc(/C=C/C(=O)O)c2)c(C)c1 | active: 82.6%
COc1ccc(C)cc1NC(=O)CN1CCN(S(=O)(=O)c2ccc(C(C)C)cc2)CC1 | inactive: -13.8%
CC[C@@H]1[C@H]2CCCC(=O)N3CC[C@@H](C[C@@H]1Nc1ccccc1)[C@@H]23 | inconclusive: 57%
O=C(c1ccc(F)cc1F)C1CCN(c2ccc([N+](=O)[O-])cn2)CC1 | inconclusive: 52.6%
O=C(COc1ccccc1)NC(=S)Nc1cccc2cc(O)ccc12 | active: 85%
CCCCCCOC(=O)CCc1c(C)nc(N)[nH]c1=O | inactive: -4%
CCN(CC)CCNC(=O)CSc1c2c(nc3cc(Cl)ccc13)CCCC2 | inconclusive: 87.9%
O=C(Nc1nnc(CSCc2ccccc2F)s1)c1cccc([N+](=O)[O-])c1 | inconclusive: 52.1%
O=C1C(Nc2ccc(O)cc2)=C/C(=N/S(=O)(=O)c2cccs2)c2ccccc21 | inactive: -94%
Cc1cc(C)cc(OC(=O)CS(=O)c2ccc(C(F)(F)F)cc2[N+](=O)[O-])c1 (stereo unspecified) | active: 171%
Cc1nc2c3cnn(-c4ccc(C)c(C)c4)c3ncn2n1 | inconclusive: 51.4%
Clc1ccccc1CSc1nnc(-c2ccncc2)o1 | inconclusive: 51.7%
CC(=O)Nc1ccc2oc(-c3ccccc3Br)nc2c1 | inconclusive: 50.7%
CS(=O)(=O)NCCNC(=O)c1cc(OCC(F)(F)F)ccc1OCC(F)(F)F | inactive: -11.1%
c1cncc(CSc2ccc(-c3ccc4c(c3)OCO4)nn2)c1 | inconclusive: 53%
COc1ccccc1CNC(=O)c1nnc(Cc2ccc(Cl)cc2)o1 | inconclusive: 51.6%
COc1ccccc1-n1cccc1C=O | inactive: -31.5%
COC(=O)c1ccc(CSc2nc3ccccc3c(=O)n2CC(C)C)o1 | active: 71.5%
COc1ccc(-n2cc3ccc([N+](=O)[O-])cc3n2)cc1 | inconclusive: 50.1%

An excerpt from further up:
Structure (SMILES) | activation
COc1ccc(C2(C)NC(=O)N(CC3CCCCC3)C2=O)cc1 (stereo unspecified) | inconclusive: 50.8%
Nn1cnnc1N/N=C/c1cccc(Cl)c1Cl | inconclusive: 50.7%
c1ccc2[nH]c(SCc3ccc(-c4nnco4)cc3)nc2c1 | inconclusive: 51.1%
N#C/C(C(=O)NCc1ccccc1)=C1/N=C(NC(=O)c2ccco2)c2ccccc21 | inconclusive: 50.3%

More records follow:

Structure (SMILES) | activation
O=C/C=C/c1c(-c2ccccc2)cc2oc3ccccc3cc1-2 | inconclusive: 53.7%
CCCCC1C(=O)CC[C@H]2[C@@H]1CC(=O)[C@@H]2C/C=C\CCCC(=O)O (stereo partly specified) | active: 71.6%
Cc1ccc(-n2c(C)cc(/C=C3\SC(=O)NC3=O)c2C)cc1 | active: 61%
Clc1ccc(-c2cc(COc3ccccc3)on2)cc1 | inconclusive: 54.9%
O=C(Nc1ccc2c(c1)OCO2)C(c1ccccc1)N1CCC2(CC1)OCCO2 (stereo unspecified) | inactive: -4.18%
Nc1c(C(=O)O)cnc2c(-c3ccc(Cl)cc3)cnn12 | inconclusive: 53.8%
CCn1c(=O)c2c3c(sc2n2c(=S)[nH]nc12)CCC3 | inactive: 5.08%
COCCCNC(=O)c1ccc(NS(C)(=O)=O)cc1 | inconclusive: 51.9%
COc1cccc(C(=O)C2CCCN(Cc3cccc(-n4cccn4)c3)C2)c1 (stereo unspecified) | inactive: 2.7%
CC1(C)Cc2ccccc2-c2nnc(SCC(=O)Nc3ccc4c(c3)OCO4)n21 | inconclusive: 50.7%
Cc1cc2oc(=O)cc(CN(C)Cc3ccccc3F)c2cc1Cl | inconclusive: 59.2%
Cc1nn(CC(=O)Nc2ccccc2)c(=O)c2ccccc12 | inactive: -10.7%
COc1ccc(/C=N/OCC(=O)Nc2nc3ccccc3s2)cc1 | inconclusive: 50.2%
CC1=CC(C)(C)Nc2ccc(C)cc21 | inactive: 3.08%
Nc1cccc(C(=O)O)c1 | inactive: -14.8%
CCc1ccc(NC(=O)COC(=O)/C=C/c2c(C)nn(C3CCS(=O)(=O)C3)c2Cl)cc1 (stereo unspecified) | inconclusive: 61.4%
CC1CCC(NC(=O)CCNC(=O)c2ccc(Br)cc2)CC1 (stereo unspecified) | inactive: 29%
COC(=O)c1c(C)oc2ccc(N(C(=O)c3ccncc3)S(=O)(=O)c3ccc(C)cc3)cc12 | inactive: -16.6%
Cc1ccc2cc(C(c3nnnn3C3CCCC3)N(Cc3ccco3)Cc3cccs3)c(=O)[nH]c2c1 (stereo unspecified) | inconclusive: 52.1%
O=C(CN(C(=O)c1ccccc1Cl)C1CCCCC1)Nc1ccc(Cl)c([N+](=O)[O-])c1 | inconclusive: 63.8%
CC1(C)Cc2c(C#N)c(N)n(-c3ccccc3)c(=S)c2CO1 | inconclusive: 51.9%
CCCCn1c(-c2cccc3ccccc23)nc2cc3[nH]c(=O)c(C(C)C)nc3cc21 | inactive: 36.8%
O=C(N=Nc1c(O)n(Cc2ccccc2)c2ccccc12)c1ccc(O)cc1 | active: 62.1%
COc1ccc(S(=O)(=O)N2CC=C(C(=O)NC3CCCC3)CC2)cc1 | inactive: 2%

Structure (SMILES) | activation
C/C(Cn1cnc([N+](=O)[O-])n1)=N\NC(=O)c1ccccc1F | inconclusive: 53.5%
CCOC(=O)c1cnc2ccc(OC)cc2c1Nc1ccc(N2CCN(C)CC2)cc1 | inconclusive: 52.2%
COc1cc(OC)cc(-c2nc3cc(C)ccc3o2)c1 | inconclusive: 51.6%
COc1ccc(C(=O)C[n+]2cn(C(F)F)c3ccccc32)c(F)c1 | inconclusive: 52.3%
COc1ccc(-c2nc(-c3ccccc3)nc(N3CCN(C)CC3)c2C#N)cc1 | inactive: 25.9%
COc1ccc(-c2coc3cc4oc(=O)c(CC(=O)O)c(C)c4cc23)cc1 | active: 71%
CC(=O)NC(CSC(CC(=O)c1ccco1)c1ccc(C)cc1)C(=O)O (stereo unspecified) | inconclusive: 53.7%
COc1ccccc1-c1cnn2c(NC3CCCC3)cc(C)nc12 | inconclusive: 50.6%
c1ccc2c3c([nH]c2c1)CCNC3 | active: 162%
COc1ccc2cc(CN(Cc3ccco3)C(c3nnnn3C3CCCCC3)C(C)C)c(=O)[nH]c2c1 (stereo unspecified) | active: 69.6%
CC(Nc1nc(N2CCNCC2)nc2ccccc12)c1ccccc1 (stereo unspecified) | inactive: -19.3%
O=C(N/N=C/C(Br)=C/c1ccccc1)c1cccs1 | active: 130%
Cn1c(-c2ccccc2)cnc1SCC(=O)N1CCCCC1 | inconclusive: 52.4%
Cc1nc2ccc(NC(=O)c3ccc(Br)o3)cc2s1 | inconclusive: 50.1%
CC1(C)CC(=O)C(C=Nc2ccc(C(=O)c3ccccc3)cc2N=CC2=C(O)CC(C)(C)CC2=O)=C(O)C1 | inconclusive: 57.1%
CCN1C(=O)CC(N2CCN(c3ccc(C(=O)c4ccccc4)cc3)CC2)C1=O (stereo unspecified) | inconclusive: 51.2%
Brc1ccc(-c2nc3ccccc3s2)s1 | inconclusive: 51%
COCCCN(CC(=O)O)S(=O)(=O)c1cccc(Cl)c1 | inconclusive: 54.9%
Cc1[nH]c2ccccc2c1/C=N/Nc1nc2ccccc2[nH]1 | active: 403%
Cc1c(-c2ccccc2)oc2c(C(=O)OCC(=O)Nc3ccc(C(N)=O)cc3)cccc2c1=O | inconclusive: 53%
COc1ccc(/C=N/Nc2ncc(Br)cn2)c(OC)c1 | inconclusive: 52.5%
COC(=O)c1cc(S(=O)(=O)N2CCN(c3ccc([N+](=O)[O-])cc3)CC2)c[nH]1 | inconclusive: 52.3%
CCc1ccc(-n2cc(-c3ccc([N+](=O)[O-])cc3)[nH]c2=S)cc1 | inconclusive: 54.1%
